This passage reports binding results from publication PMC8787401.

Amino acid sequences for entries named in this document (tags omitted).
UniProt P16599: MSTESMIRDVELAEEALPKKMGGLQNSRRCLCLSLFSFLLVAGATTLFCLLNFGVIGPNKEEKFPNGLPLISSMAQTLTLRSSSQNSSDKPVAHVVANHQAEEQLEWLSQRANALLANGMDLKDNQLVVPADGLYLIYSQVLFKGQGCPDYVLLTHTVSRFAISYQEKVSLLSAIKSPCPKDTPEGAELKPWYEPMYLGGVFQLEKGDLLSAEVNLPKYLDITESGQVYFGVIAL

These are yes or no findings as the source states them, for the method shown. In cells and extracts the contact can be indirect. Some results given as binding are weak or reduced against the parent protein; the word gives no strength. Where a sequence is shown, tags or fusion partners need not be part of it.

The target of assay [1] is T1, TNFR1 (HA-tagged, overexpressed in rat oligodendrocytes) (UniProt P25118).
T1 sequence: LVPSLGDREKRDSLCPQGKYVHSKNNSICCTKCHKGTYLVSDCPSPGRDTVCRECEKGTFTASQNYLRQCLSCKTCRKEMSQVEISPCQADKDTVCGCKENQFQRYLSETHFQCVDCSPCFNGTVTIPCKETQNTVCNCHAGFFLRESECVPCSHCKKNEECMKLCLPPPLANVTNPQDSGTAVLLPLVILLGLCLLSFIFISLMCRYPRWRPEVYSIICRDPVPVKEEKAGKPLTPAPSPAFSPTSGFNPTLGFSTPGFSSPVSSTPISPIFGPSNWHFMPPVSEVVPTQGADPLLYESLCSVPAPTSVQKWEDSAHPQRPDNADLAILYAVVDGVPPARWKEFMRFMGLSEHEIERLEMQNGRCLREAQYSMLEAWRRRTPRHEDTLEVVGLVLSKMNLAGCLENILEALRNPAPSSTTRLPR
Kind of assay: co-IP; rat oligodendrocytes nucleofected with pcDNA3.3-HA-TNFR1 / plvo3-Flag-Ninj2 or empty vector, lysed after 48 h, anti-HA antibodies, western blot. (In western blotting, separated proteins are transferred to a membrane and probed.)

Assay [2] has as its target T2, TNFR1 (HA-tagged, overexpressed in HEK293T cells) (UniProt P25118).
T2 sequence: T1 sequence
Kind of assay: co-IP; HEK293T cells transfected with plasmids for 48 h, lysed, anti-HA antibodies overnight at 4 °C, Protein A magnetic beads, western blot.

“endogenous TNFα of rat oligodendrocytes (from UniProt P16599 1-235) (ligand)”: the binding result in assay [1] was “binds”.

B1: Nerve injury-induced protein 2 (Ninj2), overexpressed in HEK293T cells (protein, UniProt Q9JL89 1-143)
chain: MESDRETIHLQHRHSMRGGNQRIDLNFYATKKSVAESMLDVALFMSNAMRLKSVLQQGPFAEYYTTLVTLIIVSLLLQVVISLLLVFIAILNLNEVENQRHLNKLNNAATILVFITVVINIFITAFGAHHAASMAARTSSNPI
On to B1, for which, in assay [2], the binding entry was “binds”.

B2: Ninj2 (Flag-tagged, overexpressed in rat oligodendrocytes) (protein, UniProt Q9JL89 1-143)
chain: B1 chain
Turning to B2, the binding result in assay [1] was “binds”.

B3: Ninj2 of rat oligodendrocytes that were transfected with empty or TNFR1 vector only (protein, UniProt Q9JHE8 1-144)
chain: MESDREIIHLQHRHSTPGGNQRHINLNHYATKKSVAESMLDVALFMSNAMRLKSVLEQGPFSQYYTTLLTLISASLLLQVVIGILLVVIARLNLNEVENQWRLNQLNNAATTLVFITVVINIFITAFGAHKTGSVAARTSSNPI
As to B3, in assay [1], the binding result is given as “binds”.
